# Data published in the odorant receptor screen of Mainland et al. (2015).
# Several values for one entry are separate records, joined by “and”; a condition that tells them apart may be missing. Identical values can stand only once. The list shows a part of the results. Each value is one well over the wells without odorant, computed here; the data are noisy.
# What was measured:
# Assay in all cases: odorant receptor activation (CRE luciferase / Renilla) (fold of no-odor wells); higher = more activation
# Settings in all cases: 100 µM
# [1] = test system: OR8G5 clone 1493
# [2] = test system: OR8H1 clone 1388
# [3] = test system: OR8H2 A105V/I154M/V158L/Y169C/D170Y/Y259H/V284M clone 1214
# [4] = test system: OR8H3 P137S clone 1215
# [5] = test system: OR8I2 clone 1213
# [6] = test system: OR8J1 Y120C clone 1500
# [7] = test system: OR8J3 clone 1149
# [8] = test system: OR8K1 clone 1431
# [9] = test system: OR8K3 L122R clone 1195
# [10] = test system: OR8K5 clone 1150
# [11] = test system: OR8S1 M48V/L82P/R128C/A198T clone 1279
# [12] = test system: OR8U1 clone 1242
# [13] = test system: OR8U8 clone 1499
# [14] = test system: OR8U9 clone 1439
# [15] = test system: OR9A2 clone 1080
# [16] = test system: OR9A4 clone 1081
# [17] = test system: OR9G1 clone 1111
# [18] = test system: OR9G4 N191D clone 1109
# [19] = test system: OR9G9 clone 1170
# [20] = test system: OR9I1 clone 1180
Compound,odorant receptor activation [1],odorant receptor activation [2],odorant receptor activation [3],odorant receptor activation [4],odorant receptor activation [5],odorant receptor activation [6],odorant receptor activation [7],odorant receptor activation [8],odorant receptor activation [9],odorant receptor activation [10],odorant receptor activation [11],odorant receptor activation [12],odorant receptor activation [13],odorant receptor activation [14],odorant receptor activation [15],odorant receptor activation [16],odorant receptor activation [17],odorant receptor activation [18],odorant receptor activation [19],odorant receptor activation [20]
CCCCCCCCCC=O [decyl aldehyde],1.01,1.3,1.29,1.11,1.09,1.15,1.09,1.41,1.11,1.16,1.35,1.69,1.07,1.59,1.18,1.12,1.26,1.16,1.14,1.06
COc1cc(C=O)ccc1O [vanillin],0.894,1.04,1.09,1.1,1.19,1.18,1.54,1.02,0.889,1.33,1.03,1.2,0.882,1.01,1,0.913,0.797,0.956,1.34,0.905
COc1cc(C)ccc1O [2-methoxy-4-methylphenol],0.867,1,0.766,0.727,1.19,0.647,1.3,1,1,1.19,0.633,1.05,0.81,0.875,4.83,2.09,18.5,2.58,1.32,1.6
CC12C=CCC1C1CCC3=CC(=O)CCC3(C)C1CC2 (stereo unspecified) [androstadienone],1.42 and 1.39,0.818,1.18,0.75,1.19,0.863 and 1.32,0.981,0.981,0.916,1.09,0.914 and 1.02,1.55 and 1.59,0.568 and 1.52,1.02,0.655,2.39,2.19,0.936,0.867,0.793
CCCCCCC=O [heptaldehyde],,1.45 and 0.532,0.487 and 1.16,0.433 and 0.88,,,0.376 and 0.899,1.39 and 0.845,,0.427 and 1.11,0.417 and 0.727 and 0.955,,,1.23 and 1.04,0.542 and 1.2,,1.72 and 1.9,1.46 and 0.659,0.371 and 0.98,0.387 and 1.03
"CC1CCC(C(C)C)C(O)C1 (single isomer, unassigned; (+)) [(+)-menthol]",1.22,1.46,0.763,0.809,1.41,1.03,1.26,0.857,1.91,1.19,0.669,1.04,1.19,0.478,7.03,4.23,34.2,7.04,1.3,1.27
CCCCCCCC=O [octyl aldehyde],0.94,0.934,1.19,1.47,1.24,0.951,1.07,0.846,1.31,0.929,1.15,1.36,1.24,0.847,1.31,1.31,1,1.49,1.02,0.775
CCCCCCCCOC(C)=O [octyl acetate],1.19,1.08,1.2,1.26,1.27,0.873,1.06,1.11,1.12,1.08,1.23,1.36,1.05,1.1,1.19,0.999,1.04,1.4,1.07,0.785
COC(=O)c1ccccc1O [methyl salicylate],0.902,1.34,0.731,0.84,1.47,1.19,0.748,1.19,0.803,0.962,1.04,0.924,1.06,1.44,1.09,0.905,0.917,1.02,0.903,0.766
CC12CCC(CC1)C(C)(C)O2 [cineole],0.888,0.187,0.819,0.817,0.755,1.01,0.761,0.122,1.02,0.644,0.945,1.23,0.982,0.117,0.704,0.633,1.07,0.816,0.746,0.732
CC1COCc2cc3c(cc21)C(C)(C)C(C)C3(C)C (stereo unspecified) [galaxolide],,3.85,0.952,0.836,3.6,6.91 and 3.85,0.932,3.29,0.764,3.58,,4.25 and 3.39,3.25 and 6.03,3.06,2.46,4.29,2.11,2.03,0.735,0.846
CC(=O)OC1CC2CCC1(C)C2(C)C (stereo unspecified) [isobornyl acetate],0.938 and 1.2,0.798,1.07,0.817,1.25,0.883 and 0.96,0.952,1.15,1.08,0.832,0.891 and 1.03,1.11 and 1.08,0.53 and 1.34,0.87,0.492,6.41,0.809,0.675,0.903,0.981
C=CCc1ccc(O)c(OC)c1 [eugenol],1.58 and 0.902 and 1.17,1.96 and 1.09,2.75 and 1.36,2.33 and 1.43,1 and 1.17,1.84 and 1.04 and 1.35,2.01 and 1.27,1.69 and 1.31,3.55 and 1.59,1.14 and 1.02,1.43 and 1.42,0.65 and 1.53,1.96 and 1.03 and 1.06,1.7 and 1.4,0.662 and 1.54,0.936 and 1.48,1.83 and 1.58,1.55 and 1.46,2.27 and 1.53,1.74 and 1.12
CC1=CCC(C(C)(C)O)CC1 (stereo unspecified) [terpineol],0.721,1.02,0.94,1.21,1.27,0.833,1.32,0.994,0.878,1.31,0.827,1.05,0.599,0.893,1.01,1.04,1.15,1.22,0.993,0.966
CC(=O)OC(C)(C)C1CC=C(C)CC1 (stereo unspecified) [terpinyl acetate],0.881,1.05,1.09,1.18,1.46,0.953,1.82,0.997,1.1,1.38,0.896,0.856,0.696,0.804,1.29,1.69,1.39,1.27,1.52,1.24
CC(C)(C)c1ccc(CCC=O)cc1 [bourgeonal],1.04,0.132,0.53,0.694,0.633,1.11,0.813,0.118,0.787,0.618,0.785,0.764,1.09,0.119,0.899,0.721,0.792,0.808,0.967,0.643
c1cnccn1 [pyrazine],0.722,1.22,0.938,1.16,0.939,0.734,1.24,1.24,0.787,0.997,0.815,0.894,0.648,1.15,0.895,1.06,0.951,1.06,1.08,0.973
CC=Cc1ccc(O)c(OC)c1 [isoeugenol],0.919 and 1.57,1.3,1.2,1.09,1.89,1.76 and 2.21,0.866,1.45,1.05,1.32,1.07 and 1.41,1.4 and 2.08,,1.54,0.809,1.75,1.38,0.815,0.848,1.05
CC(C)CCC(=O)O [4-methylvaleric acid],0.976,1.11,0.686,0.69,0.919,0.802,1.06,0.674,1.19,0.88,0.943,1.31,1.12,0.733,4.48,2.43,13.7,2.79,0.905,1.03
CCCCCCCOC(C)=O [heptyl acetate],1.11 and 1.22,0.939,0.838,0.851,1.06,0.628 and 1.09,1.08,1.03,1.03,0.821,0.975 and 1.17,1.24 and 1.63,,0.938,0.9,10.5,1.66,0.628,0.828,1.11
C=C(C)C1CC=CCC1 (stereo unspecified) [r-limonene],0.879 and 1.22 and 0.812,1.32,1.26 and 0.534,1.4 and 0.596,1.24 and 0.418,0.864 and 0.954 and 0.95,1.23 and 0.779,1.53 and 1.09,0.903 and 0.457,1.01 and 0.636,0.924 and 0.329,,0.881 and 0.834 and 0.908,1.25 and 1.08,1.18 and 1.15,1.32 and 1.11,1.01 and 1.49,1.28 and 0.872,1.17 and 0.537,0.924 and 0.525
COc1ccccc1O [guaiacol],1.01 and 1.34,0.714,1.08,0.934,1.27,0.659 and 0.975,0.986,0.916,0.846,1.06,0.949 and 0.884,1.54,,0.796,1.04,6.14,1.38,0.753,1.03,0.971
CCCCCC(=O)O [caproic acid],1.01,0.209,0.887,1.05,0.842,1.04,1.05,0.112,1.07,0.887,0.799,0.84,0.946,0.118,0.987,0.77,1.02,1.11,0.98,0.975
O=C1CCCCCCCCCCCCCCO1 [pentadecalactone],0.858,1.19,0.923,1.01,0.84,0.796,0.9,1.26,0.741,0.948,0.88,0.789,0.725,1.24,0.831,0.88,0.731,1.06,0.807,0.807
CCCCCOC(C)=O [n-amyl acetate],1.16 and 0.817,1.11,0.597,0.798,0.438,1.17 and 0.875,0.839,0.927,0.673,0.675,0.392,0.286,0.942 and 0.855,0.765,0.841,1.74,1.84,1.5,0.681,0.682
CC(=O)OCC=C(C)CCC=C(C)C [geranyl acetate],1.14 and 1.37,0.903,0.96,0.911,1.33,0.78 and 1.04,0.962,1,0.826,1.32,0.927 and 1.3,1.78 and 1.53,,1.16,0.883,8.94,1.82,0.603,0.967,0.881
CCC1(O)C2(C)CCC(C2)C1(C)C (stereo unspecified) [2-ethylfenchol],1.25,1.41,0.873,0.592,1.02,0.911,1.12,0.961,0.791,1.01,0.701,1.27,1.11,0.549,9.34,3.79,29.5,4.28,1.56,1.08
C=C(C)C1CC=C(C)C(=O)C1 (stereo unspecified) [r-carvone],0.708,1.27,1.15,1.14,1.27,0.897,1.11,1.19,1.22,1.07,0.831,0.938,0.795,1.28,1.01,1.17,0.66,0.984,1.04,0.862
